Our source for the binding values is article PMC11705415.

Protein sequences, listed by entry. Tags and fused reporters are not part of them. Lines headed by an entry give the natural chain unless they say otherwise; changes in a name come on top.
UniProt P62069: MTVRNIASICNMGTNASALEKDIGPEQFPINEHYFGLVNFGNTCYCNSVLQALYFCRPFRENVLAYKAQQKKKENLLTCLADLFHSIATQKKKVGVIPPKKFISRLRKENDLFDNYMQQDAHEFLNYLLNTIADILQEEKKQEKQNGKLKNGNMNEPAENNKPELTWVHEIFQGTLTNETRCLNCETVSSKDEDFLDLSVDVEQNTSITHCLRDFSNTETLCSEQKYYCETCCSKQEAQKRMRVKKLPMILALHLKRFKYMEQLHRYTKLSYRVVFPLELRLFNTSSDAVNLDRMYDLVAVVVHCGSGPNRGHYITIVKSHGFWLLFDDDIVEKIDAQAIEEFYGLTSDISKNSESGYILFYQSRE
UniProt Q8BH57: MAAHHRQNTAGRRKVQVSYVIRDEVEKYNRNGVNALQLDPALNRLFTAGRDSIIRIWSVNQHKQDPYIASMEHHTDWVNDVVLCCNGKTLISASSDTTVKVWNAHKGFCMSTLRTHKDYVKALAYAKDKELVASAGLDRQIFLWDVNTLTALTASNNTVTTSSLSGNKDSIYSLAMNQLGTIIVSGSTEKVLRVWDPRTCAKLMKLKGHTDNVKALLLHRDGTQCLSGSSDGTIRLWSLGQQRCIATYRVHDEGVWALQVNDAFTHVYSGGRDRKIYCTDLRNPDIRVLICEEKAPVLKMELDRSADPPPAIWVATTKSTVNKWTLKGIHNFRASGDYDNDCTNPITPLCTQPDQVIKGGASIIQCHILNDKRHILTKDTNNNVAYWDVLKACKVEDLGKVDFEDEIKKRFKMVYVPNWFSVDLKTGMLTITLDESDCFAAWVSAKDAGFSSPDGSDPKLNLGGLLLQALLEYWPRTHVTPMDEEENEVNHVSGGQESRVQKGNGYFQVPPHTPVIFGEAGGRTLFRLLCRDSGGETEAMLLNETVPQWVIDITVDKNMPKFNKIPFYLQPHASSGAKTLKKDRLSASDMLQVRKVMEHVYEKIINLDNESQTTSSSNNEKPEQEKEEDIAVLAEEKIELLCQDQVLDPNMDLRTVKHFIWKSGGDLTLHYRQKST
UniProt Q8CHE4: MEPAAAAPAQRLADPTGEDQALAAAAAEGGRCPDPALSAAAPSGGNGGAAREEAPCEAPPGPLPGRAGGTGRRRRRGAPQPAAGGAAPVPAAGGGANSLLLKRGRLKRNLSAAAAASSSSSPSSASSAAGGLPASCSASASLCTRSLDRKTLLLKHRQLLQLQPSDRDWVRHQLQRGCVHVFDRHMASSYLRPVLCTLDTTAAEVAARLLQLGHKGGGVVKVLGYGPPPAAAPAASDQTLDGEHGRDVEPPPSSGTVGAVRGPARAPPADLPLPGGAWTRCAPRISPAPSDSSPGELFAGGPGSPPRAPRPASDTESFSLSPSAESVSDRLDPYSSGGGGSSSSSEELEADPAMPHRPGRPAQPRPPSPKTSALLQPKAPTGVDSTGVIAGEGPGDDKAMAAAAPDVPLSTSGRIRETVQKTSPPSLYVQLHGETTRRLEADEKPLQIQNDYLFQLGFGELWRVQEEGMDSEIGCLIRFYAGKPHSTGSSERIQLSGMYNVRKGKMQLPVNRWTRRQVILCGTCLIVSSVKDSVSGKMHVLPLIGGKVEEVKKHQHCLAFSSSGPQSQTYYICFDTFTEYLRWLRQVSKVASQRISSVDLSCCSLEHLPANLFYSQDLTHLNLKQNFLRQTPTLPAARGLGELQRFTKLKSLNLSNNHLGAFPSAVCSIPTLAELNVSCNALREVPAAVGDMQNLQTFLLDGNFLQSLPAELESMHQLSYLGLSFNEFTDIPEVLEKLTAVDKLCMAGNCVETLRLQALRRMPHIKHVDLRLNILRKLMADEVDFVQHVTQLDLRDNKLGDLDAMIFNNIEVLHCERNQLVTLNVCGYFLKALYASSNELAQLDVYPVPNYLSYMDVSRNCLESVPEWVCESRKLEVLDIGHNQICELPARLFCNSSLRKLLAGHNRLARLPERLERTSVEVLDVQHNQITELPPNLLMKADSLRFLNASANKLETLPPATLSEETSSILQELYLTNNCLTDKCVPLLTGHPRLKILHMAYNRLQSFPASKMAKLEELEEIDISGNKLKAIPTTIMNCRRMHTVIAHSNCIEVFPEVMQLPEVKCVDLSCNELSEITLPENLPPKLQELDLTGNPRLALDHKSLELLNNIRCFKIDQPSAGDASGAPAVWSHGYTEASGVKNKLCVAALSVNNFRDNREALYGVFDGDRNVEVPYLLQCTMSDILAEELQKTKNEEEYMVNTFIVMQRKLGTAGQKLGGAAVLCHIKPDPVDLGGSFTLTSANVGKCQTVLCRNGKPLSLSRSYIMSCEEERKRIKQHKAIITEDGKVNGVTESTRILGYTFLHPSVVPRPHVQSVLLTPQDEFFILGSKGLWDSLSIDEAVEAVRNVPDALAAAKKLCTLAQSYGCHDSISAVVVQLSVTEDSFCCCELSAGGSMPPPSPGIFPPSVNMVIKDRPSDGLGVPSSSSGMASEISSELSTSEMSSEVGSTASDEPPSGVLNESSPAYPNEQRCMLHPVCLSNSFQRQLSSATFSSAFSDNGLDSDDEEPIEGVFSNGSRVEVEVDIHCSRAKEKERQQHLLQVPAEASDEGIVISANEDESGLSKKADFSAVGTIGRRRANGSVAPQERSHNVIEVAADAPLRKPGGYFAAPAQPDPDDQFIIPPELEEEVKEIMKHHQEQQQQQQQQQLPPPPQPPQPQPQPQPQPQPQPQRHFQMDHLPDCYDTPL

Like-named read-outs stand apart in the source and are kept apart here. These are yes or no findings as the source states them, for the method shown. Binding seen in cells or lysates may run through a third protein. Here binding means that the protein was enriched with, or labelled near, the bait; the list need not be complete.

Holding throughout (test): proximity labelling; BioID: knock-in Neuro2a cells stably expressing USP46 (WT or ΔK92)-BirA(R118G)-HA, 50 μM biotin for 24 h; lysis in TNE buffer with 0.1% Triton X-100; streptavidin Mag Sepharose pull-down, SDS-PAGE, LC-MS/MS; proteins of the CRAPome list and of intact Neuro2a cells excluded
The target of assay [1] is USP46-ΔK92-BirA(R118G)-HA fusion protein (mouse) (UniProt P62069).
Assay [2] addresses USP46-WT-BirA(R118G)-HA fusion protein (mouse) (UniProt P62069).
For assay [3] the target is unchanged. The source holds these as a separate data set.
The target of assay [4] is USP46-ΔK92-BirA(R118G)-HA fusion protein (mouse) (UniProt P62069). The source holds these as a separate data set.

WDR48 (from UniProt Q8BH57 1-676): the binding result in assay [1] and in assay [2] was “binds” in each case.

Regarding PHLPP1 (from UniProt Q8CHE4 1-1687), the binding entry in assay [1] and in assay [2] was “binds” in each case.

B1: VPS52 (protein, UniProt Q8C754 1-723)
chain: MAAAATMAAAARELVLRAGASDVEEEEGPLGGGSGLQEPLQLGELDITSDEFILDEVDVHIQANLEDELVKEALKTGVDLRHYSKQVELELQQIEQKSIRDYIQESENIASLHNQITACDAVLERMEQMLGAFQSDLSSISSEIRTLQEQSGAMNIRLRNRQAVRGKLGELVDGLVVPSALVTAILEAPVTEPRFLEQLQELDAKAAAVREQEAMGTAACADVRGVLDRLRVKAVTKIREFILQKIYSFRKPMTNYQIPQAALLKYRFFYQFLLGNERATAKEIRDEYVETLSKIYLSYYRSYVGRLMKVQYEEVAEKDDLMGVEDTAKKGFFSKPSLRSRNTIFTLGTRGTVISPAELEAPILVPHTAQRGEQRYPFEALFRSQHYALLDNSCREYLFICEFFIVSGPAAHDLFHAVMGRTLSMTLKHLESYLADCYDAIAVFLCIHIVLRFRNIAAKRDVPALDRYWEQVLALLWPRFELILEMNVQSVRSTDPQRLGGLDTRPHYITRRYAEFSSALVSINQTIPNERTLQLLGQLQVEVENFVLRVAAEFSSRKEQLVFLINNYDMMLGVLMERAADDSKEVESFQQLLNARTQEFIEELLSPPFGGLVAFVKEAEALIERGQAERLRGEEARVTQLIRGFGSSWKASVESLSQDVMRSFTNFRNGTSIIQGALTQLIQLYHRFHRVLSQPQLRALPARAELINIHHLMVELKKHKPNF
modifications: biotin (proximity-dependent biotinylation, sites not stated)
In the case of B1, in assay [3], the binding entry is on record as “binds”.

B2: VPS50 (protein, UniProt Q8CI71 1-964)
chain: MQKIKSLMTRQGLKSPPESLNDLGAFESLRVPGKEEFRELREQPSDPQAEQELINSIEQVYFSADPFDIVKYELEKLPPVLNLQELEEYRDKLKQQQSAVSKKVADLILEKQPAYVKELERVTSLQTGLQLAAVICTNGRRHLNIAKEGFTQASLGLLANQRKRQLLIGLLKSLRTIKTLQRTDIRLSEMLEEEDYPGAIQLCLECQKAASTFKHYSCISELNSKLQDTLEQIEEQLDVALSKICKNFDINHYTKVQQAYRLLGKTQTAMDQLHMHFTQAIHNTVFQVVLGYVELCAGNTDTKFQKLQYKDLCTHVTPDSYIPCLADLCKALWEVMLSYYRTMEWHEKHDNEETAAAAEGSNVMSTEEATFDRGYVKKKLEHGLTRIWQDVQLKVKTYLLGTDLSIFKYDDFIFVLDIVSRLMQVGEEFCGSKSEVLQESIRKQSVNYFKNHHRIRLDELRMFLENETWELCPVKSNFSILQLHEFKFLEQSRSPSVSPSKQPSATSSKPVTLFEQYCSGGNPFEIQADHKDEETEDVLASNGYESDEQEKSAYQDYDSDSDVPEELKRDYVDEQTGDVPVKSVSRETLKSRKKSDYSLNKVNAPILTNTTLNVIRLVGKYMQMMNILKPIAFDVIHFMSQLFDYYLYAIYTFFGRNDSLESTGLGLSSSRLKTTLNRIQESLIDLEGSADPTATLTAAEERKEKVPSPHLNQLVILTSGDTLYGLAERVVATESLVFLAEQFEFLQPHLDAVMPAVKKPFLQQFYSQTVSTASELRKPIYWIVAGKAIDYEQMLLLMMNVKWDVKEIMSQHNIYVDALLKEFEQFNKRLNEVSKRVRIPLPVSNILWEHCIRLANRTIVEGYANVKKCSNEGRALMQLDFQQFLMKLEKLTDIRPIPDKEFVETYIKAYYLTENDMERWIKEHREYSTKQLTNLVNVCLGSHINKKARQKLLAAIDEIDRPKR
modifications: biotin (proximity-dependent biotinylation, sites not stated)
Take B2: the binding result in assay [3] is “binds”.

B3: STRN (protein, UniProt O55106 1-780)
chain: MDEQAGPGVFFSNNHPGAGGAKGLGPLAEAAAAGDGAAAAGAARAQYSLPGILHFLQHEWARFEVERAQWEVERAELQAQIAFLQGERKGQENLKKDLVRRIKMLEYALKQERAKYHKLKYGTELNQGDMKPPSYDSDEGNETEVQPQQNSQLMWKQGRQLLRQYLQEVGYTDTILDVKSKRVRALLGFSSDVTDREDDKNQDSVINGTEAEVKETAMIGKSELTDSASVLDNFKFLESAAADVSDEDEDEDTDGRAKSVIDTSTIVRKKALPDTSEDRDTKEALKEFDFLVTSEEGDNESRSAGDGTDWEKEDQCLTPEAWNVDQGVISKLKEQYKKERKGKKGVKRPNRSKLQDMLANLRDVDELPSLQPSVGSPSRPSSSRLPEQELSRADEVEALTFPPSSGKSFIMGADEALESELGLGELAGLTVANEADSLAYDIANNKDALRKTWNPKFTLRSHFDGIRALAFHPIEPVLITASEDHTLKMWNLQKTAPAKKSTSLDVEPIYTFRAHKGPVLCVVMSSNGEQCYSGGTDGRIQSWSTTNPNVDPYDAYDPSVLRGPLLGHTDAVWGLAYSAAHQRLLSCSADGTLRLWNTTEVAPALSVFNDNQELGIPASVDLVSSDPSHMVASFSKGYTSIFNMETQQRVLTLESNVDSTSSSSCQINRVISHPTLPISITAHEDRHIKFYDNNTGKLIHSMVAHLEAVTSLAVDPNGLYLMSGSHDCSIRLWNLESKTCIQEFTAHRKKFEESIHDVAFHPSKCYIASAGADALAKVFV
modifications: biotin (proximity-dependent biotinylation, sites not stated)
For the molecule B3, the binding entry in assay [3] was “binds”.

B4: VPS53 (protein, UniProt Q8CCB4 1-832)
chain: MMEEEELEFVEELEAVLQLTPEVQLAIEQVFPSQDPLDQADFNAVEYINTLFPTEQSLANIDDVVNKIRLKIRRLDDNIRTVVRGQTNVGQDGRQALEEAQKAIQQLFGKIKDIKDKAEKSEQMVKEITRDIKQLDHAKRHLTTSITTLNHLHMLAGGVDSLEAMTRRRQYGEVANLLQGVMNVLEHFHKYMGIPQIRQLSERVKAAQTELGQQILADFEEAFPSQGTKRPGGPSNVLRDACLVANILDPRIKQEIIKKFIKQHLSEYLVLFQENQDVAWLDKIDRRYAWVKRQLVDYEEKYGRMFPREWCMTERISVEFCHVTRAELSKIMRARAKEIEVKLLLFAIQRTTNFEGFLAKRFSGCTLTDGTLKKLESPPPSTNPFLEDETTPEMEELALEKGELEQPKKPKAPDNPFHGIVSKCFEPHLYVYIESQDKNLSELIDRFVADFKAQGPPKPNTDEGGAVLPSCADLFVYYKKCMVQCSQLSTGEPMIALTTIFQKYLREYAWKILSGNLPKTSSSSGGLTISSLLKEKEGSEVARFTLEELCLICSILSTAEYCLATTQQLEEKLKEKVDVSLTERINLTGEMDTFSTVISSSIQLLVQDLDAACDPALIAMSKMPWQNVEHVGDQSPYVTSVILHIKQNVPIIRDNLASTRKYFTQFCIKFANSFIPKFITHLFKCKPISMVGAEQLLLDTHSLKMVLLDLPSIGSQVVRKAPASYTKIVVKGMTRAEMILKVVMAPHEPLVVFVDNYIKLLTDCNSETFQKILDMKGLKRSEQSSMLELLRQRLPAPPSGTEGSSTLSLIAPTPEQESSRIRKLEKLIKKRL
modifications: biotin (proximity-dependent biotinylation, sites not stated)
As to B4, the binding result in assay [3] was “binds”.

B5: VPS51 (protein, UniProt Q3UVL4 1-782)
chain: MAAAAAVGPGLGSGPGDSPEGPEADAPERRRKAHGMLKLYYGLSEGEVAGHPAGPDPLDPTDLNGAHFDPEVYLDKLRRECPLAQLMDSETDMVRQIRALDSDMQTLVYENYNKFISATDTIRKMKNDFRKMEDEMDRLATNMAVITNFSARISATLQDRHERITKLAGVHALLRKLQFLFELPSRLTKCVELGAYGQAVRYQGRARAVLQQYQHLPSFRAIQDDCQVITARLAQQLRQRFREGCSGAPEQAECVELLLALGEPAEELCEEFLAHARGRLEEELSSLEAELGPSPPAPDVLEFTDRGGNGFVGGLCQVAAAYQELFAAQGPAGAEKLAAFAQELGGRYFALVERRLAQEQGGSDNSLLVRALDRFHRRLRAPGALLAAAGLSESATEIVERVARERLSHHLQGLKAAFLSSLTDVRQALAAPRLAGKEGPSLAELLANVASSILSHIKTSLASVHLFTAKEVSFSNKPYFRGEFCSQGVREGLIVGFIRSMCQTAQSFCDSPGEKGGATPPALLLLLSRLCLDYETATISYILTLTDEQFLVQDQSPVTPVSTLCAEARETARRLLTHYVKVQGLVISQMLRKSVETRDWLSTLEPRNVRAVMKRVVEDTTAIDVQVGLLYEEGVRKAQSSDSSKRTFSVYSSSRQQGRYAPSYTPSAPMDTNLLSNIQKLFSERIDVFSPVEFNKVSVLTGIIKISLKTLLECVRLRTFGRFGLQQVQVDCHFLQLYLWRFVADEELVHLLLDEVVASAALRCPDPVPMEPSVVEVICERG
modifications: biotin (proximity-dependent biotinylation, sites not stated)
For B5, the binding entry in assay [3] is on record as “binds”.

B6: WDR20 (protein, UniProt Q9D5R2 1-567)
chain: MATEGRGKETNEIKTHFTTREGLYRLLPHSEYSRPNRVPFNSQGSNPVRVSFVNLNDQTGNGNRLCFSVGRELYVYIYKGVRKAADLSKPIDKRIYKGTQPTCHDFNHLTATAESVSLLVGFSAGQVQLIDPIKKETSKLFNEERLIDKSRVTCVKWVPGSDSLFLVAHSSGNMYSYNVEHTYGTTAPHYQLLKQGESFAVHNCKSKSTRDLKWTVGEGALNEFAFSPDGKFLACVSQDGFLRVFNFDSAELHGTMKSYFGGLLCLCWSPDGKYIVTGGEDDLVTVWSFLDCRVIARGRGHKSWVSVVAFDPYTTSVEESDPMEFSDSDKNFQDLLHFGRDRANSTQSRLSKQNSTDSRPVSVTYRFGSVGQDTQLCLWDLTEDILFPHQPLSRARAHANVMNATGLPAGSNGSAVTTPGNSVPPPLPRSNSLPHSAVSNAASKGSVMDGAITSGVSKFALLSLHDRKERHHEKDRKRNHSMGHISSKSSDKLNLVNKAKTDPAKTLGTSLCPRMEDVPLLEPLICKKIAHERLTVLVFLEDCIVTACQEGFICTWARPGKVSKFQP
modifications: biotin (proximity-dependent biotinylation, sites not stated)
For B6, the binding entry in assay [4] and in assay [3] was “binds” in each case.
